Source: publication doi:10.1101/2024.12.24.629987
Results are given in words; binding and its absence hold for the method and conditions named. For some of these results: Binding seen in cells or lysates may run through a third protein. For some of these results: Binding calls can cover weak binding; strength is not graded here. For some of these results: Sequences can lack the tags named with a protein.

Columns and labels:
[1] = biological target: GFP-SJP39 (mature SJP39, GFP-SJP39^32-114) (jujube Witches' Broom (JWB) phytoplasma (Candidatus Phytoplasma ziziphi)); experiment: co-IP
[2] = biological target: SJP39^32-77 in pDEST32 (yeast two-hybrid bait) (jujube Witches' Broom (JWB) phytoplasma (Candidatus Phytoplasma ziziphi)); experiment: two-hybrid
[3] = biological target: GST-SJP39^32-77 (jujube Witches' Broom (JWB) phytoplasma (Candidatus Phytoplasma ziziphi)); experiment: pull-down
[4] = biological target: GST-SJP39^78-114 (jujube Witches' Broom (JWB) phytoplasma (Candidatus Phytoplasma ziziphi)); experiment: pull-down

B1: AtbHLH87-Myc (protein, UniProt Q8S3D2 1-373)
chain: MEGLESVYAQAMYGMTRESKIMEHQGSDLIWGGNELMARELCSSSSYHHQLINPNLSSCFMSDLGVLGEIQQQQHVGNRASSIDPSSLDCLLSATSNSNNTSTEDDEGISVLFSDCQTLWSFGGVSSAESENREITTETTTTIKPKPLKRNRGGDGGTTETTTTTTKPKSLKRNRGDETGSHFSLVHPQDDSEKGGFKLIYDENQSKSKKPRTEKERGGSSNISFQHSTCLSDNVEPDAEAIAQMKEMIYRAAAFRPVNFGLEIVEKPKRKNVKISTDPQTVAARQRRERISEKIRVLQTLVPGGTKMDTASMLDEAANYLKFLRAQVKALENLRPKLDQTNLSFSSAPTSFPLFHPSFLPLQNPNQIHHPEC
binding [1]: binds

B2: AtbHLH87 in pDEST22 (yeast two-hybrid prey) (protein, UniProt Q8S3D2 1-373)
chain: B1 chain
binding [2]: no binding

B3: His-AtbHLH87 (protein, UniProt Q8S3D2 1-373)
chain: B1 chain
binding [3]: no binding | binding [4]: no binding
